No constants are given. Whether binding was seen depends on the method and setting. Binding seen in cells or lysates may run through a third protein. Some entries that bind do so weakly or less than the wild type. For some assays here: Tags and fused reporters may be left off the sequences shown.
Columns and labels:
HSC70-HA K557R = HSC70-HA K557R (UniProt P11142); assay: co-IP; HSC70 (WT, K557R or K557Q) with the endogenous CMA substrates IκBα and GAPDH, by Western blot; SIRT2 KD cells, or SIRT2 inhibited with TM or TM-P4-Thal
HSC70-HA WT = HSC70-HA WT (UniProt P11142); assay: as above
[1] = target: T1, SIRT2-HA (HA-tagged Sirtuin 2) (UniProt Q8IXJ6); assay: co-IP; SIRT2-HA overexpressed in HEK293T or A549 cells, precipitated with HA-affinity beads, endogenous HSC70 detected by Western blot; nutrient-rich (DMEM) or amino acid starvation (EBSS 4 h)
T1 sequence: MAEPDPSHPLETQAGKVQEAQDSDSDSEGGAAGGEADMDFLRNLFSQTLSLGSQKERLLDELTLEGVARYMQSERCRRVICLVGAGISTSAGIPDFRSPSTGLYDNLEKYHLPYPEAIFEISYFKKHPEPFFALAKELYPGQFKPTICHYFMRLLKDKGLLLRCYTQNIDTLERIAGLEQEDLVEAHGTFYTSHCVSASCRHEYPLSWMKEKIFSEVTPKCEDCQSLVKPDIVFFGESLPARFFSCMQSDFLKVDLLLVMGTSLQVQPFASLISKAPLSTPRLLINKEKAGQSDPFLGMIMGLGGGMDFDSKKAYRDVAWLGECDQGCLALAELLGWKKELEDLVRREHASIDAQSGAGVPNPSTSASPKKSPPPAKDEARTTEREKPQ

Chains of the proteins cited; added tags and fusions are not shown. Lines headed by an entry give the natural chain unless they say otherwise; changes in a name come on top.
UniProt P11142: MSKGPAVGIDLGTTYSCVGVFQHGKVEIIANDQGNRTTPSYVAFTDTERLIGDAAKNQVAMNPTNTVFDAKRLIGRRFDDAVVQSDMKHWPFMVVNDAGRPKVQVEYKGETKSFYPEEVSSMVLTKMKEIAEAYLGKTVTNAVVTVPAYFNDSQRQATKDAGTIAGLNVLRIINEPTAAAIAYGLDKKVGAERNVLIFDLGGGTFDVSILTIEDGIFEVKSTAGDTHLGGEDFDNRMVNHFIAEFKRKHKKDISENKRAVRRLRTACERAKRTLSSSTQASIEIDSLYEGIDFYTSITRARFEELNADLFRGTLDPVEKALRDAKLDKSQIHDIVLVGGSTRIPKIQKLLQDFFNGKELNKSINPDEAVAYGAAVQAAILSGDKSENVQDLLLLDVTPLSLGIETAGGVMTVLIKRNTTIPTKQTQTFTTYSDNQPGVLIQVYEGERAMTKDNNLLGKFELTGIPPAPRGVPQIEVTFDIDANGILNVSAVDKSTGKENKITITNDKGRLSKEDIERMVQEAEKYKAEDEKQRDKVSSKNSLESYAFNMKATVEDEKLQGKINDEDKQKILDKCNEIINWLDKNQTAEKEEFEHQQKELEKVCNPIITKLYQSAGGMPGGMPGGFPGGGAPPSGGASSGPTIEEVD
UniProt P04406: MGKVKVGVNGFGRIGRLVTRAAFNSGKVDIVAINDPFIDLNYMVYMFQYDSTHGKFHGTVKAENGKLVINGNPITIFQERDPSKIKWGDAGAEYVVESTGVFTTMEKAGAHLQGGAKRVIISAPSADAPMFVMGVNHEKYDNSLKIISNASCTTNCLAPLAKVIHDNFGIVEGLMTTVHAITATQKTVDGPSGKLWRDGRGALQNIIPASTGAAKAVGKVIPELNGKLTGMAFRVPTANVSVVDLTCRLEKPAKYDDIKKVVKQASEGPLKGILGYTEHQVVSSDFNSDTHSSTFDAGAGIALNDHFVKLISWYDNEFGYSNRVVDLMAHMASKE
UniProt P25963: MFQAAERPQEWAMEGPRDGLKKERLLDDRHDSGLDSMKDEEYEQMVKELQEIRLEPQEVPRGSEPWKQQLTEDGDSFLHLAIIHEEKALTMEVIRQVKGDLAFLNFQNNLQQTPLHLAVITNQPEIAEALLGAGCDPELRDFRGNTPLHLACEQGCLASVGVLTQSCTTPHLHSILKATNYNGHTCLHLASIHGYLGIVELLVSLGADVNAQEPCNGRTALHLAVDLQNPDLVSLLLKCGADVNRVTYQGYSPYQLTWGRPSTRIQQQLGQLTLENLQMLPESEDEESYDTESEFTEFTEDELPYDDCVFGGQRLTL

Row | binding (HSC70-HA K557R) | binding (HSC70-HA WT) | binding [1] | Substance
1 | binds | binds |  | GAPDH, endogenous (from UniProt P04406 1-335)
2 | binds | binds |  | IκBα, endogenous (from UniProt P25963 1-317)
3 |  |  | binds | Heat shock cognate 71kDa protein (HSC70), endogenous (from UniProt P11142 1-646)
